Taken from: PubChem BioAssay AID1259405 (NCATS, 2018)

- Purpose: 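Mouse-designed siRNAs used to find CHO productivity engineering targets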 (primary screen)
- Cell system: Chinese hamster CHO-K1 ovary cells with stable secreted eGFP expression
- Reagents: single siRNA against mouse genes, 0.8 pmol siRNA per well (2 µl of 400 nM stock)
- Timing: 3 days
- Measurement: 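Per-well intracellular GFP measured by laser scanning cytometry, plus viability from ATP luminescence, each relative to plate median of non-targeting control wells, in %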
- Scale: GFP, % of control: higher = more GFP per well, higher productivity
- Hit rule: 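a knock-down is called active if GFP reaches 120% or more of non-targeting control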
In all, the deposit lists about 50,000 reagents; below is a part drawn at random. In the full data, about 4,000 (8%) were called active. 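Mouse siRNA library applied to hamster cells; one well for each siRNA.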 A number with no mark means an inactive call. The numbers tell different reagents against one gene apart. Further read-outs or replicates are left out here.

GFP, % of control, by gene and reagent
Zfp365 (zinc finger protein 365): #1 31.5; #2 73.8; #3 109
Pde8a (phosphodiesterase 8A): #1 202 (active); #2 50.2; #3 83.7
Cnppd1 (cyclin Pas1/PHO80 domain containing 1): #1 79.8; #2 46.5; #3 43.4
Luzp2 (leucine zipper protein 2): #1 66.4; #2 56.1; #3 29.9
Spns3: #1 38.7; #2 58.7; #3 83.6
Nlrp4e (NLR family, pyrin domain containing 4E): #1 59; #2 90; #3 70.6
Clec3b (C-type lectin domain family 3, member b): #1 53; #2 79.5; #3 84
Rpl27a (ribosomal protein L27A): #1 22.5; #2 102; #3 28.9
Lrrk1 (leucine-rich repeat kinase 1): #1 58; #2 128 (active); #3 111
Syngr2 (synaptogyrin 2): #1 56.1; #2 109; #3 87.9
Arl5b (ADP-ribosylation factor-like 5B): #1 125 (active); #2 67.1; #3 82.1
Slc17a6: #1 83.2; #2 68.1; #3 66.7
Or10aa1 (olfactory receptor family 10 subfamily AA member 1): #1 51.1; #2 58.7; #3 62.2
Arsg (arylsulfatase G): #1 97.1; #2 49; #3 44.6
Ubb (ubiquitin B): #1 50.2; #2 106; #3 74.9
Aim2 (absent in melanoma 2): #1 40.5; #2 98.2; #3 90.9
Mboat2 (membrane bound O-acyltransferase domain containing 2): #1 161 (active); #2 57.4; #3 67.8
Prb1a (proline-rich protein BstNI subfamily 1A): #1 97.5; #2 25
Zbtb8os (zinc finger and BTB domain containing 8 opposite strand): #1 180 (active); #2 97.2; #3 50
Csdc2 (cold shock domain containing C2, RNA binding): #1 74.4; #2 69.7; #3 61
Lins1 (lines homolog 1): #1 65.9; #2 78.4; #3 108
Cd160 (CD160 antigen): #1 70.2; #2 94.5; #3 127 (active)
Nin (ninein): #1 50.1; #2 94.8; #3 58.1
Nfx1 (nuclear transcription factor, X-box binding 1): #1 28.6; #2 67.6; #3 106
Upk1b (uroplakin 1B): #1 49.7; #2 62.2; #3 97.5
Rab36 (RAB36, member RAS oncogene family): #1 143 (active); #2 115; #3 44.3
Ces2b (carboxyesterase 2B): #1 125 (active); #2 80.6; #3 66
Phyhip (phytanoyl-CoA hydroxylase interacting protein): #1 118; #2 44.4
Copg2 (coatomer protein complex, subunit gamma 2): #1 82.3; #2 90.1; #3 55.4
Cyp7b1 (cytochrome P450, family 7, subfamily b, polypeptide 1): #1 101; #2 58.6; #3 90.8
Zdhhc16 (zinc finger, DHHC domain containing 16): #1 54.7; #2 50.9; #3 40.3
Med26 (mediator complex subunit 26): #1 80.5; #2 68
Fgd4 (FYVE, RhoGEF and PH domain containing 4): #1 63.5; #2 57.1; #3 79.6
Pola1 (polymerase (DNA directed), alpha 1): #1 61.3; #2 94.4; #3 56.1
2310057J18Rik (RIKEN cDNA 2310057J18 gene): #1 71.6; #2 43.9; #3 89
Osm (oncostatin M): #1 99.9; #2 57; #3 75.4
Cmtm5 (CKLF-like MARVEL transmembrane domain containing 5): #1 93.3; #2 88.4; #3 120 (active)

Copied from the entries so far for reference:
GFP, % of control, by gene and reagent
Cd160 (CD160 antigen): #1 70.2; #2 94.5; #3 127 (active)
Nin (ninein): #1 50.1; #2 94.8; #3 58.1
Nfx1 (nuclear transcription factor, X-box binding 1): #1 28.6; #2 67.6; #3 106
Upk1b (uroplakin 1B): #1 49.7; #2 62.2; #3 97.5
Rab36 (RAB36, member RAS oncogene family): #1 143 (active)
